This test concerns the target T1, glutathione S-transferase (GST)-tagged GRHL3 (UniProt Q5FWH3).
T1 sequence: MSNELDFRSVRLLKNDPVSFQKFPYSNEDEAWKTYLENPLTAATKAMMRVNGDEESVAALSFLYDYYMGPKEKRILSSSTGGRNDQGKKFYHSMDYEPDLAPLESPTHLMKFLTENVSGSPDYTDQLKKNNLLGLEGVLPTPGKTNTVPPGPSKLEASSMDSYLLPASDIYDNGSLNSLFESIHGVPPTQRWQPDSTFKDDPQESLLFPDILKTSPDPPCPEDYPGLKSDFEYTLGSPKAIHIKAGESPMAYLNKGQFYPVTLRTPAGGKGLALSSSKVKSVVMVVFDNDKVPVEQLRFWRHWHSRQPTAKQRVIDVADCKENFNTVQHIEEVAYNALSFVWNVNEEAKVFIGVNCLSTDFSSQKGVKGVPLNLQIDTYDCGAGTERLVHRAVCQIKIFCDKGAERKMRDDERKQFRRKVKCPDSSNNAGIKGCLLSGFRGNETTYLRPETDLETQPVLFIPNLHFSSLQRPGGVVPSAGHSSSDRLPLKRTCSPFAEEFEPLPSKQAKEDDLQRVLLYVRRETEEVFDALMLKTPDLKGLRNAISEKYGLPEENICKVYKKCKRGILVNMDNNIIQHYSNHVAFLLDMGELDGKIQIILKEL
The test can be described thus: affinity purification with mass spectrometry; GST-tagged GRHL3 (GST-tag alone as control) expressed in MCF7 cells; specific protein bands subjected to mass spectrometry.

These are yes or no findings as the source states them, for the method shown. In cells and extracts the contact can be indirect. A yes stands for co-enrichment or nearness to the bait. Other partners may have been found. Tags and fused reporters may be left off the sequences shown.

B1: ubiquitin-specific protease 39 (USP39), endogenous in MCF7 cells (protein, UniProt Q53GS9 1-565)
chain: MSGRSKRESRGSTRGKRESESRGSSGRVKRERDREREPEAASSRGSPVRVKREFEPASAREAPASVVPFVRVKREREVDEDSEPEREVRAKNGRVDSEDRRSRHCPYLDTINRSVLDFDFEKLCSISLSHINAYACLVCGKYFQGRGLKSHAYIHSVQFSHHVFLNLHTLKFYCLPDNYEIIDSSLEDITYVLKPTFTKQQIANLDKQAKLSRAYDGTTYLPGIVGLNNIKANDYANAVLQALSNVPPLRNYFLEEDNYKNIKRPPGDIMFLLVQRFGELMRKLWNPRNFKAHVSPHEMLQAVVLCSKKTFQITKQGDGVDFLSWFLNALHSALGGTKKKKKTIVTDVFQGSMRIFTKKLPHPDLPAEEKEQLLHNDEYQETMVESTFMYLTLDLPTAPLYKDEKEQLIIPQVPLFNILAKFNGITEKEYKTYKENFLKRFQLTKLPPYLIFCIKRFTKNNFFVEKNPTIVNFPITNVDLREYLSEEVQAVHKNTTYDLIANIVHDGKPSEGSYRIHVLHHGTGKWYELQDLQVTDILPQMITLSEAYIQIWKRRDNDETNQQGA
B1: the binding entry was “binds”.

The values are drawn from article PMC9018712.
